The values that follow come from US20170051040A1.

Amino acid sequences for entries named in this document (tags omitted). Residues count along the entry.
UniProt P41597: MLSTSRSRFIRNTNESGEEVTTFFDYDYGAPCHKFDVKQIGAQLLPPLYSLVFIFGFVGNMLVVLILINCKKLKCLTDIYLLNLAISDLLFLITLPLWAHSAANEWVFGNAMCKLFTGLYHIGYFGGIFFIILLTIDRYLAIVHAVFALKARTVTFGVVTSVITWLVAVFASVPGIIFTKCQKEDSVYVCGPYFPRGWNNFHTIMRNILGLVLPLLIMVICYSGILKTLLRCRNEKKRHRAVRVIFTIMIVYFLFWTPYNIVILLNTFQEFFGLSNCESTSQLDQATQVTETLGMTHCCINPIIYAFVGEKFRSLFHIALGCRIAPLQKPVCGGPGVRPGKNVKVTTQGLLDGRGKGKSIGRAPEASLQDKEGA
UniProt P13500, residues 24-99: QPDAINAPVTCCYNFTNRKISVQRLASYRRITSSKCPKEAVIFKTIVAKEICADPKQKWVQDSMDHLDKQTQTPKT

Results are given in words; binding and its absence hold for the method and conditions named. Some results given as binding are weak or reduced against the parent protein; the word gives no strength.

For test [1], the target named is CC chemokine receptor 2 (CCR2) stably expressed on HEK293 cells (human) (UniProt P41597). Description: flow cytometry on HEK-CCR2 cells; displaced by unlabelled CCL2, not by ECL1 (C) inverso.
The target is the same in test [2]. Put plainly: competition binding on HEK-CCR2 cells, flow cytometry; competitor of the tracer CCL2-Alexa-647.
Test [3] shares this target. Put plainly: competition binding on HEK-CCR2 cells; tracers [125I]-CCL2 (gamma counting) and CCL2-Alexa 647 (flow cytometry). For orientation: In flow cytometry, cells or beads pass a laser one at a time.

As for “CCL2-Alexa 647 (from UniProt P13500 24-99) (ligand)”, the binding entry in test [1] is given as “binds”.
For “recombinant human CCL2 (from UniProt P13500 24-99) (ligand)”, the binding entry in test [2] and in test [3] was “binds” in each case.
